Measured values as given in patent US10702503B2, “Catalase inhibitor and method for measuring analyte using catalase inhibitor” (PHC Holdings Corporation, priority 2016, dated 2020).
For at least one compound, name, drawing or mass did not settle the structure.

Tests used:
catalase in the blood = molecular target: T1, catalase in the blood (Homo sapiens, UniProt P04040); experiment: Catalase inhibitory effect test (foaming test); assay type: biochemical; conditions: inhibitor 0.001% (w/v); human blood equivalent to dilution by 25 times; hydrogen peroxide 1% (v/v) added after 4 min 30 s
T1 construct: and human blood (equivalent to dilution by 25 times) were mixed; from tissue; host or cells: human blood
T1 sequence (P04040 2-527 limits assumed): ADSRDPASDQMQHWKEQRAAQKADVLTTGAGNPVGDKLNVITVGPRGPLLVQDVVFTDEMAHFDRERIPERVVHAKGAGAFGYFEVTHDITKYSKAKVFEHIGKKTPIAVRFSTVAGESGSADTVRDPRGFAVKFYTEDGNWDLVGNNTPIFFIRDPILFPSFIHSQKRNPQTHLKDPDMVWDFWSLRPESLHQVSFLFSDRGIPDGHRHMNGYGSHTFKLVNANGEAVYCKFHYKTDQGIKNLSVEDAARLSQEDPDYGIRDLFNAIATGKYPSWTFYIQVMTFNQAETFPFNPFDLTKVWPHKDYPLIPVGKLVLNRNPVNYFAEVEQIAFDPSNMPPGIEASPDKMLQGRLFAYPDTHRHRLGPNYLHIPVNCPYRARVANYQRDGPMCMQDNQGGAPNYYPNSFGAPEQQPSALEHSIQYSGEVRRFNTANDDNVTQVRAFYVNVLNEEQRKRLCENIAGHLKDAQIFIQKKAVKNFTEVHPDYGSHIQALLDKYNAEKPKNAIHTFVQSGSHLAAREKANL

catalase = molecular target: T2, catalase (Homo sapiens, UniProt P04040); experiment: Electrochemical measurement test of HbA1c using catalase inhibitor
T2 sequence (P04040 2-527 limits assumed): T1 sequence (P04040 2-527 limits assumed)

[1] = Example 2, inhibitor 1750 μM, listed as 2-azido-1,3-dimethylimidazolinium hexafluorophosphate

Which “Foaming (oxygen production) after introduction of hydrogen peroxide, visual check” value (catalase in the blood) does the source give for `CN1CC[N+](C)=C1N=[N+]=[N-]` [AIP, 2-azido-1,3-dimethylimidazolinium hexafluorophosphate] here?
The value was “foam was not observed”.

What about the “Linear approximation curve: gradient (current response to HbA1c concentration)” value (shortened to “Linear approximation curve: gradient”) (catalase; Example 2, inhibitor 350 μM) of the same molecule?
Its value is 1.95.

What about the “Linear approximation curve: intercept (current response to HbA1c concentration)” value (“Linear approximation curve: intercept” for short) (catalase; Example 2, inhibitor 350 μM) of the same molecule?
Its value is 49.97.

What about the “Sensitivity (Gradient of Approximated Curve ÷ Intercept)” value (from here on “Sensitivity”) (catalase; Example 2, inhibitor 350 μM) of the same molecule?
The value was 0.039.

And the “Linear approximation curve: gradient” value (catalase; Example 2, inhibitor 1750 μM)?
Its value is 2.06.

What about the “Linear approximation curve: intercept” value (catalase; Example 2, inhibitor 1750 μM) of the same molecule?
The value was 27.71.

And the “Sensitivity” value (catalase; Example 2, inhibitor 1750 μM)?
The value was 0.074.

What about the “Linear approximation curve: intercept” value (catalase; [1]) of the same molecule?
Its value is “value of the intercept decreased”.

And the “Sensitivity” value (catalase; [1])?
Its value is “improvement in sensitivity (S/N ratio) was observed”.

What about the “Linear approximation curve: gradient” value (catalase; Example 3, inhibitor 1750 μM) of the same molecule?
The value was 1.99.

And the “Linear approximation curve: intercept” value (catalase; Example 3, inhibitor 1750 μM)?
Its value is 24.78.

And the “Sensitivity” value (catalase; Example 3, inhibitor 1750 μM)?
Its value is 0.080.

And the “Linear approximation curve: gradient” value (catalase; Example 3, inhibitor 3500 μM)?
Its value is 1.50.

And the “Linear approximation curve: intercept” value (catalase; Example 3, inhibitor 3500 μM)?
The value was 26.93.

What about the “Sensitivity” value (catalase; Example 3, inhibitor 3500 μM) of the same molecule?
The value was 0.056.

And the “Sensitivity” value (catalase; Example 3, inhibitor 3500 μM, listed as 2-azido-1,3-dimethylimidazolinium hexafluorophosphate)?
The value was “sufficient measurement sensitivity was obtained”.

What about the “Linear approximation curve: gradient” value (catalase; Example 4, inhibitor 250 μM) of the same molecule?
The value was 2.21.

And the “Linear approximation curve: intercept” value (catalase; Example 4, inhibitor 250 μM)?
The value was 48.39.

What about the “Sensitivity” value (catalase; Example 4, inhibitor 250 μM) of the same molecule?
Its value is 0.046.

And the “Sensitivity” value (catalase; Example 4, inhibitor 250 μM, listed as 2-azido-1,3-dimethylimidazolinium hexafluorophosphate)?
The value was “sufficient measurement sensitivity was obtained”.

What about the “Linear approximation curve: gradient” value (catalase; Example 4, inhibitor 1750 μM) of the same molecule?
Its value is 2.02.

And the “Linear approximation curve: intercept” value (catalase; Example 4, inhibitor 1750 μM)?
The value was 28.89.

And the “Sensitivity” value (catalase; Example 4, inhibitor 1750 μM)?
Its value is 0.070.
